Measured values published in doi:10.1101/2025.05.06.651509.
Results are given in words; binding and its absence hold for the method and conditions named. For some assays here: Binding seen in cells or lysates may run through a third protein. Some entries that bind do so weakly or less than the wild type. For some assays here: Sequences can lack the tags named with a protein.

T1: HA-tagged TSC22D4 (UniProt Q9Y3Q8)
T1 sequence: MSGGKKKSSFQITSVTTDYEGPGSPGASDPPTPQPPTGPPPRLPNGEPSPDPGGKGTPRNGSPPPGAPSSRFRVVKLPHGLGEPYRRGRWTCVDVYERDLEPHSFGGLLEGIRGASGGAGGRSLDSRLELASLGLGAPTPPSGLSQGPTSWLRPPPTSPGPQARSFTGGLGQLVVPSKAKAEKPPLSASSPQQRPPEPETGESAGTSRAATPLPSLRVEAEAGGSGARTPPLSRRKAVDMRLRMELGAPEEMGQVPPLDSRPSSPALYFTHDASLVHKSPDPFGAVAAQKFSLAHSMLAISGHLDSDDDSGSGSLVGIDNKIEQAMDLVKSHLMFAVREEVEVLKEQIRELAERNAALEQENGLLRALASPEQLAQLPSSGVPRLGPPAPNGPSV


Tests used:
HA-tagged TSC22D4 = target: T1, HA-tagged TSC22D4; experiment: co-IP
[1] = target: recombinant IGF2BP2 (human), Q9Y6M1; experiment: MST; settings: remark: other sources report otherwise

Row | binding (HA-tagged TSC22D4) | binding [1] | Binder
1 | binds |  | endogenous TSC22D4 (protein, UniProt Q9EQN3 1-387) MSGGKKKSSFQITSVTTDYEGPGSPGASDSPVPPALAGPPPRLPNGDPNPDPGGRGTPRNGSPPPGAPASRFRVVKLPQGLGEPYRRGRWTCVDVYERDLEPPSFGRLLEGIRGASGGTGGRSLDSRLELASLGISTPIPQPGLSQGPTSWLRPPPTSPGPQARSFTGGLGQLAGPGKAKVETPPLSASPPQQRPPGPGTGDSAQTLPSLRVEVESGGSAAATPPLSRRRDGAVRLRMELVAPAETGKVPPTDSRPNSPALYFDASLVHKSPDPFGAAAAQSLSLARSMLAISGHLDSDDDSGSGSLVGIDNKIEQAMDLVKSHLMFAVREEVEVLKEQIRDLAERNAALEQENGLLRALASPEQLAQLPSSGLPRLGPSAPNGPSI
2 |  | binds | recombinant IGF2BP2, Q9Y6M1 1-599 (protein) MMNKLYIGNLSPAVTADDLRQLFGDRKLPLAGQVLLKSGYAFVDYPDQNWAIRAIETLSGKVELHGKIMEVDYSVSKKLRSRKIQIRNIPPHLQWEVLDGLLAQYGTVENVEQVNTDTETAVVNVTYATREEAKIAMEKLSGHQFENYSFKISYIPDEEVSSPSPPQRAQRGDHSSREQGHAPGGTSQARQIDFPLRILVPTQFVGAIIGKEGLTIKNITKQTQSRVDIHRKENSGAAEKPVTIHATPEGTSEACRMILEIMQKEADETKLAEEIPLKILAHNGLVGRLIGKEGRNLKKIEHETGTKITISSLQDLSIYNPERTITVKGTVEACASAEIEIMKKLREAFENDMLAVNQQANLIPGLNLSALGIFSTGLSVLSPPAGPRGAPPAAPYHPFTTHSGYFSSLYPHHQFGPFPHHHSYPEQEIVNLFIPTQAVGAIIGKKGAHIKQLARFAGASIKIAPAEGPDVSERMVIITGPPEAQFKAQGRIFGKLKEENFFNPKEEVKLEAHIRVPSSTAGRVIGKGGKTVNELQNLTSAEVIVPRDQTPDENEEVIVRIIGHFFASQTAQRKIREIVQQVKQQEQKYPQGVASQRSK
